Earlier results as cited in patent US7928128B2, “Use of(R)-(−) -2-[5-(4-fluorophenyl)-3-pyridylmethylaminomethyl]-chromane and its physiologically acceptable salts” (Merck Patent Gesellschaft mit beschrankter Haftung, priority 2000, dated 2011).
For at least one compound, name, drawing or mass did not settle the structure.

System: Parkinson patients
Conditions: literature reports; cited from earlier work

Structure (SMILES): CN1CCN(C2=Nc3cc(Cl)ccc3Nc3ccccc32)CC1 [clozapine]
- anti-dyskinetic effect in Parkinson patients: ameliorates dyskinesias
